Measured values from PMC4352044.
Substitutions are numbered along the chain they refer to. No constants are given. Whether binding was seen depends on the method and setting. Binding seen in cells or lysates may run through a third protein. Some binding calls cover weakened binding; strength is not graded here.

Assays:
[1] = target: T1, scc3-K372A-6HA (budding yeast) (UniProt P40541); assay: co-IP; anti-HA immunoprecipitation of Scc3-6HA (wild type or mutant) from yeast lysates, mid-log cells; IPH150 or IPH50 buffer (50 mM Tris pH 8.0, 150/50 mM NaCl, 5 mM EDTA, 0.5% NP-40, 1 mM DTT), 4°C, protein A/G agarose, Western blot of partners; also in wpl1Δ strains and after depletion of Pds5-3V5-AID with 1 mM IAA
T1 sequence: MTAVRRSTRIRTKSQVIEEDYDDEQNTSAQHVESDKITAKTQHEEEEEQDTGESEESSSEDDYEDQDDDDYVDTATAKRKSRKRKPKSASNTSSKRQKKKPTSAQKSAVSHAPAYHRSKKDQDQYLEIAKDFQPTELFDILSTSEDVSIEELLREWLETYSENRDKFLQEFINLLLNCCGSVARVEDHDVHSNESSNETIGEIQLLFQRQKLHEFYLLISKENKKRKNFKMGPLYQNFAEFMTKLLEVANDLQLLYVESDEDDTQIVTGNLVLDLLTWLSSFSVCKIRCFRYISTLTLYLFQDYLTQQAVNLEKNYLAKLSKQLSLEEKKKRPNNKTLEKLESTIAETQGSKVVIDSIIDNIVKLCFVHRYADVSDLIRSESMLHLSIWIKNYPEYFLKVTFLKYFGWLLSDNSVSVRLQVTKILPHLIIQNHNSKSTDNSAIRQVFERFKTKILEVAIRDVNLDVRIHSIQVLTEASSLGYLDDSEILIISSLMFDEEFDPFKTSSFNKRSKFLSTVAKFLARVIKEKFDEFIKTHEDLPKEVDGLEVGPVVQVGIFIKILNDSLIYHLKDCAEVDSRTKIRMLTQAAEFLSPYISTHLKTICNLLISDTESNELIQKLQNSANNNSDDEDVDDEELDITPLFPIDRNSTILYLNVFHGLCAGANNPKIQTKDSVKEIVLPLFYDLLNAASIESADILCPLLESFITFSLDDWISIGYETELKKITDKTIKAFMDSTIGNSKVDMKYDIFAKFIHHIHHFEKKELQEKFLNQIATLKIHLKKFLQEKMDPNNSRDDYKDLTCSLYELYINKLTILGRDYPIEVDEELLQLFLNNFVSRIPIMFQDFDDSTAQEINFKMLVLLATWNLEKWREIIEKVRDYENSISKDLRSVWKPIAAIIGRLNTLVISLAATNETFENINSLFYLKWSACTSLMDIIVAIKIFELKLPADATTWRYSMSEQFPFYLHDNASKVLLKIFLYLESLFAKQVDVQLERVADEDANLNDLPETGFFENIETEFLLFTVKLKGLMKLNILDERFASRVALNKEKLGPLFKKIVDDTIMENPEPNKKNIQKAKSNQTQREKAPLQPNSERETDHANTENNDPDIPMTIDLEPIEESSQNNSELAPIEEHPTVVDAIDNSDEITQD

Scc3-6HA (budding yeast) = target: T2, Scc3-6HA (budding yeast) (UniProt P40541); assay: as above
T2 sequence: T1 sequence with A372K

binding [1]: binds | binding (Scc3-6HA (budding yeast)): binds
B1: Mcd1 (protein, UniProt Q12158 1-566)
chain: MVTENPQRLTVLRLATNKGPLAQIWLASNMSNIPRGSVIQTHIAESAKEIAKASGCDDESGDNEYITLRTSGELLQGIVRVYSKQATFLLTDIKDTLTKISMLFKTSQKMTSTVNRLNTVTRVHQLMLEDAVTEREVLVTPGLEFLDDTTIPVGLMAQENSMERKVQGAAPWDTSLEVGRRFSPDEDFEHNNLSSMNLDFDIEEGPITSKSWEEGTRQSSRNFDTHENYIQDDDFPLDDAGTIGWDLGITEKNDQNNDDDDNSVEQGRRLGESIMSEEPTDFGFDLDIEKEAPAGNIDTITDAMTESQPKQTGTRRNSKLLNTKSIQIDEETENSESIASSNTYKEERSNNLLTPQPTNFTTKRLWSEITESMSYLPDPILKNFLSYESLKKRKIHNGREGSIEEPELNVSLNLTDDVISNAGTNDNSFNELTDNMSDFVPIDAGLNEAPFPEENIIDAKTRNEQTTIQTEKVRPTPGEVASKAIVQMAKILRKELSEEKEVIFTDVLKSQANTEPENITKREASRGFFDILSLATEGCIGLSQTEAFGNIKIDAKPALFERFINA
